No constants are given. Whether binding was seen depends on the method and setting. Binding can be weak; no strength is given. Sequences can lack the tags named with a protein.
Target: CFP-ARC2-3 (TNKS1) (human)
Assay: FRET or BRET; ratiometric FRET (527 nm/477 nm on excitation at 410 nm): 250 nM CFP-fusion mixed with 500 nM YFP-fusion or YFP; assay buffer pH 7.0; 384-well plates, 4 replicates; both purified

B1: YFP-TBM (peptide)
chain: REAGDGEE
notes: also called TBM (REAGDGEE); YFP-fused TBM; source: E. coli BL21(DE3), purified (IMAC); not shown: mCitrine (YFP), N-terminal, kept
  binding: binds

From article PMC7378079 (Scientific Reports, 2020)
